Measurements taken from publication PMC10223877 (Pharmaceutics, 2023).
Some peptides are written in HELM: one residue between dots, names in brackets for other building blocks, links after the first $.

Test: peptide made by a vendor
Conditions: whole synthesis

Substance | final HPLC purity [% purity] | final HPLC purity (pharmaceutics-15-01391-t001 r5) [%] | final HPLC purity (run 1) [% purity]
PEPTIDE1{V.R.L.I.V.A.V.R.I.W.R.R.[am]}$$$$V2.0 | >95 |  | 
PEPTIDE1{[PEG6].V.R.L.I.V.A.V.R.I.W.R.R.[am]}$$$$V2.0 | ≥95 |  | 
T(GlcNAc)VRLIVAVRIWRR-NH2 |  | >92.0 | ≥95
